According to PubChem BioAssay AID504834 (National Center for Advancing Translational Sciences (NCATS), 2011):
Hit rate of the full screen: of about 320,000 compounds, about 22,000 (6.9%) were called active. Inconclusive results, whose numbers are uncertain, are shown with a selection of clear calls. The call rests on the fitted dose curve; in most records, active means well fitted inhibition curve with a large enough effect; inconclusive means small, poorly fitted or top-dose-only effect, or another doubt; inactive means no such curve, though single readings can be large or run the other way. A potency beside an inconclusive call is a rough fit, not a confirmed value.
On the % scale 0 is the no-effect control and ±100 the full control effect; potency means the concentration at half of the fitted maximal effect.

Assay: Primary qHTS for delayed death inhibitors of the malarial parasite plastid, 96 hour incubation
Settings: P. falciparum luciferase reporter growth; series mostly up to 28.7 µM; activity change, negative = inhibition: at the top concentration
How it was run: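 Parasite growth measured via integrated firefly luciferase reporter in P. falciparum. Infected erythrocytes at 2% hematocrit, 0.05% parasitemia final were treated 96 hours at 37 C under 5% CO2, and luminescence was read.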
For `Cc1cc2c(cc1C)N(C(=O)CN1C(=O)c3ccccc3C1=O)C(C)(C)c1ssc(=S)c1-2`, the Potency was active: 8.28 µM.
In the case of `Cc1cccn2c(CN3CCSCC3)c(C(=O)N3CCOCC3)nc12`, the Potency is reported as inconclusive: 11.7 µM [inhibitor, single point].
For `CCOc1ccc2ccccc2c1C1NC(=S)N(C)C(C)=C1C(=O)OC` (stereo not drawn), the Potency was active: 3.29 µM.
For `CCOc1ccc(C2C([N+](=O)[O-])=C(C)N(C)C(=O)N2C)cc1OC` (stereo not drawn), the “activity change, negative = inhibition” value was inactive: -0.942%.
In the case of `O=C(c1ccc2oc(CCCc3ccccc3)nc2c1)N1CCCCC1CO` (stereo not drawn), the “activity change, negative = inhibition” value is reported as inactive: -0.586%.
With `O=C(O)c1nccnc1C(=O)Nc1ccc(S(=O)(=O)N2CCOCC2)cc1` the Potency was inconclusive: 0.415 µM [inhibitor, partial curve, poor fit].
With `O=C(CCSc1ccccc1)NCCSCc1ccco1` the Potency was inconclusive: 18.5 µM [inhibitor, single point].
In the case of `S=C(NCCc1ccccc1)NC1CCC(NC(=S)NCCc2ccccc2)CC1` (stereo not drawn), the Potency is reported as inconclusive: 2.94 µM [inhibitor, partial curve, poor fit].
For `CC(C)c1ccc(NC2CCCN(C(=O)CCN3CCCO3)C2)cc1` (stereo not drawn), the Potency was inconclusive: 11.7 µM [inhibitor, single point].
In the case of `Cc1ccc(CN2CCN(CCCn3cccn3)CC2CCO)cc1` (stereo not drawn), the “activity change, negative = inhibition” value is reported as inactive: 25.1%.
In the case of `CSC1=NCCN1C(=O)c1cccc(Br)c1`, the “activity change, negative = inhibition” value is reported as inactive: 75.6%.
With `C=CCn1c(SCc2ccc([N+](=O)[O-])cc2)nnc1C(C)NC(=O)c1ccccc1` (stereo not drawn) the Potency was inconclusive: 7.38 µM [inhibitor, partial curve, poor fit].
For `COc1cc(CN2CCN(Cc3c[nH]c4ccccc34)CC2CCO)cc(OC)c1` (stereo not drawn), the Potency was active: 10.4 µM.
In the case of `COc1ccccc1OCc1cc(C(=O)N(C)CCC2CCCCO2)no1` (stereo not drawn), the Potency is reported as inconclusive: 18.5 µM [inhibitor, partial curve, poor fit].
In the case of `CC1CC(C)(C)NC(=S)N1CCC(=O)N1CCc2ccccc2C1` (stereo not drawn), the Potency is reported as inconclusive: 18.5 µM [inhibitor, single point].
With `CCC1(c2ccccc2)NC(=O)N(CC(=O)N2CC(=O)Nc3ccccc32)C1=O` (stereo not drawn) the Potency was inconclusive: 10.4 µM [inhibitor, partial curve].
For `CN(CC(=O)Nc1cccc(F)c1)CC(=O)Nc1ccccc1Oc1ccccc1`, the Potency was inconclusive: 11.7 µM [inhibitor, single point].
For `CC(C)(C)NC(=O)COC(=O)CNC(=O)c1cc(Cl)cc([N+](=O)[O-])c1`, the “activity change, negative = inhibition” value was inactive: -9.7%.
With `Cc1ccc(NC(=O)CN2C(=O)S/C(=C/c3ccncc3)C2=O)cc1` the Potency was inconclusive: 13.1 µM [inhibitor, single point].
For `COCCCC1CCN(C(=O)C2CCC(=O)N(Cc3cccc(F)c3)C2)CC1` (stereo not drawn), the Potency was inconclusive: 10.4 µM [inhibitor, single point].
With `COc1ccc(/C=C/c2nc(S(=O)(=O)c3ccccc3)c(N(C)C)o2)cc1` the Potency was inconclusive: 18.5 µM [inhibitor, single point].
In the case of `Cc1cc(NC(=O)C(C)SCC(=O)OCc2c(Cl)cccc2Cl)no1` (stereo not drawn), the Potency is reported as inconclusive: 11.7 µM [inhibitor, single point].
With `CCc1nnc(NS(=O)(=O)c2ccc(NC(=S)NC(=O)c3ccccc3)cc2)s1` the “activity change, negative = inhibition” value was inactive: 40.9%.
With `NS(=O)(=O)c1ccc(NC(=O)N2c3ccccc3Sc3ccccc32)cc1` the Potency was active: 2.33 µM.
With `COc1ccc(S(=O)(=O)Cc2ccc(C(=O)NCc3ccccn3)o2)cc1` the Potency was inconclusive: 11.7 µM [inhibitor, single point].
For `COc1cc(C(C)=O)ccc1OCc1nnc(-c2ccccc2Br)o1`, the Potency was inconclusive: 13.1 µM [inhibitor, single point].
In the case of `Cc1ccc(NC(=O)CSc2ccc(Br)cc2)cc1S(=O)(=O)N1CCOCC1`, the “activity change, negative = inhibition” value is reported as inactive: -26.3%.
In the case of `CCOc1ccc(C(C)=O)cc1CN1C(=O)NC(C)(C2CC2)C1=O` (stereo not drawn), the Potency is reported as inconclusive: 4.65 µM [inhibitor, partial curve, poor fit].
In the case of `CC(=O)c1cccc(NC(=O)C2CCCN2S(=O)(=O)c2cccc3nsnc23)c1` (stereo not drawn), the Potency is reported as inconclusive: 14.7 µM [inhibitor, single point].
For `Cc1ccc(OCc2cc(C(=O)N3CCN(C)C[C@@H]3c3ccccc3)no2)cc1C`, the Potency was inconclusive: 10.4 µM [inhibitor, single point].
In the case of `COc1cccc(NC(=S)N2CCN(S(=O)(=O)c3ccccc3)CC2)c1`, the Potency is reported as inconclusive: 14.7 µM [inhibitor, single point].
With `COc1nc(OCCNS(=O)(=O)c2ccc(C)cc2)nc(N(C)C)n1` the Potency was inconclusive: 13.1 µM [inhibitor, single point].
For `COC(=O)CCN(c1ccccc1)S(=O)(=O)c1cc(-c2cc(C)no2)ccc1C`, the “activity change, negative = inhibition” value was inactive: 10.9%.
With `CC(NS(=O)(=O)c1ccc(N)cc1)C1CC2CCC1C2` (stereo not drawn) the “activity change, negative = inhibition” value was inactive: 0.788%.
For `CC(NS(=O)(=O)c1ccc(NC(=O)N2CCCCC2)cc1)c1ccccc1` (stereo not drawn), the Potency was inconclusive: 4.65 µM [inhibitor, partial curve].
With `CCCCN=c1scc(-c2ccc3c(c2)NC(=O)CO3)n1N=C1CCCC1` the Potency was active: 9.28 µM.
With `COc1ccc(C(=O)N/C(=C\c2cn(C)c3ccccc23)C(=O)N2CCOCC2)cc1` the Potency was inconclusive: 18.5 µM [inhibitor, single point].
In the case of `CC(Nc1ccc(S(=O)(=O)N2CCN(C)CC2)cc1[N+](=O)[O-])c1ccccc1` (stereo not drawn), the Potency is reported as inconclusive: 18.5 µM [inhibitor, single point].
With `Cc1sc(NC(=O)c2ccco2)c(C(Nc2ccccn2)c2ccccc2)c1C` (stereo not drawn) the Potency was inconclusive: 2.08 µM [inhibitor, full curve, poor fit].
In the case of `COc1ccc(CNC(=O)C(C)Sc2ccc(S(=O)(=O)N3CCOCC3)cn2)cc1` (stereo not drawn), the “activity change, negative = inhibition” value is reported as inactive: -0.67%.
In the case of `CCOC(=O)NN1C(=O)c2ccccc2NC1c1cccnc1` (stereo not drawn), the Potency is reported as inconclusive: 10.4 µM [inhibitor, partial curve, poor fit].
In the case of `CCn1c(=O)c(=O)[nH]c2c(=O)oc3ccc(S(=O)(=O)Nc4ccc(OC)cc4)cc3c21`, the Potency is reported as inconclusive: 14.7 µM [inhibitor, partial curve, poor fit].
With `Cc1sc(NC(=O)Cc2ccc3c(c2)OCO3)nc1-c1ccc2c(c1)CCN2C(=O)c1ccccc1F` the “activity change, negative = inhibition” value was inactive: -0.606%.
